# Laboratory results published in PubChem BioAssay AID1671190 (National Center for Advancing Translational Sciences (NCATS), 2021).
# The chains behind the UniProt entries cited, without tags or fusion partners. Where a name states a change or a piece, a line headed by the entry shows the natural chain unless it says otherwise.
# UniProt P18054: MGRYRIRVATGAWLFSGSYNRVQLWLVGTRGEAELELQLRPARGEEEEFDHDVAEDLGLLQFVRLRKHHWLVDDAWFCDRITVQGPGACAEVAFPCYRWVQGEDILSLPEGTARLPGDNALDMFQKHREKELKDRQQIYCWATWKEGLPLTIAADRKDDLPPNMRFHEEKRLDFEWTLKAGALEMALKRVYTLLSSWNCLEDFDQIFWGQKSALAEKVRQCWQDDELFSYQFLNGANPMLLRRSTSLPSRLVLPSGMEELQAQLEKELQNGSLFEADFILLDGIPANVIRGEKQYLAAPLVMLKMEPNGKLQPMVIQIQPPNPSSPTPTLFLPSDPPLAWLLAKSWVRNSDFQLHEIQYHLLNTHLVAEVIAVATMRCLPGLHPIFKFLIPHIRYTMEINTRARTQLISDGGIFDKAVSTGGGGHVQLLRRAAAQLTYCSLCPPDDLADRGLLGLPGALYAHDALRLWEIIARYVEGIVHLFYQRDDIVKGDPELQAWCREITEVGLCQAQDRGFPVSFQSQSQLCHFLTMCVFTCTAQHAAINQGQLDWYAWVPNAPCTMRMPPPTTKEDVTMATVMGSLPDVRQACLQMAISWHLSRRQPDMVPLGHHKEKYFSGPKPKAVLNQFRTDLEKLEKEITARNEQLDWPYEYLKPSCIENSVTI
# Where “and” joins values, the source holds several entries; their conditions need not be identical. Identical values can stand only once. Among all 580,000 compounds or so, about 6,100 (1.1%) were called active. Inconclusive means that the source gave no clear call. Such entries were picked first, then a sample of the others. Calls come from the whole dose curve; as a rule, active = well fitted inhibition curve with a large enough effect; inconclusive = small, poorly fitted or top-dose-only effect, or another doubt; inactive = no such curve, though single readings can be large or run the other way. Where the call is inconclusive, the potency comes from a doubtful curve fit.
# Biological target: Polyunsaturated fatty acid lipoxygenase ALOX12 (Homo sapiens) (UniProt P18054)
# Assay: Primary qHTS assay for inhibitors of human arachidonate 12S-lipoxygenase (ALOX12): Round 2
# Conditions: purified 12hLO, xylenol orange hydroperoxide absorbance; series mostly up to 108 µM
# Outline: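 Hydroperoxide product was detected by ferrous iron/xylenol orange as the 573 to 405 nm absorbance ratio. Arachidonic acid at 40 uM (final) was turned over for 30 min at room temperature by 150 nM human 12hLO, pH 7.0 Hepes buffer, after 15 min compound preincubation.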
# Potency is the fitted concentration of half-maximal effect.
row,SMILES,Potency
1,O=C(Nc1nncs1)c1ccc(N2C(=O)C3C4C=CC(C4)C3C2=O)cc1 (stereo unspecified),"inconclusive: 11.2 µM [inhibitor, full curve, poor fit]"
2,CN(C)c1ccc(/C=N/NC(N)=S)cc1[N+](=O)[O-],inactive
3,CCOc1ccc(C(=O)Nc2ccc(N3CCN(C(=O)c4ccc(C)cc4)CC3)cc2)cc1,"inconclusive: 112 µM [inhibitor, partial curve, poor fit]"
4,Cc1ccc(CN2CCSc3ccc(C(=O)NC4CCN(Cc5ccccc5)CC4)cc32)cc1,inactive
5,COc1ccccc1N1CCN(CCCCOc2ccc(C)cc2C)CC1,"inconclusive: 0.501 µM [inhibitor, full curve, poor fit]"
6,COc1ccc2[nH]c(=O)c(CN(Cc3cnn(C)c3)C3CC3)cc2c1,"inconclusive: 11.2 µM [inhibitor, full curve, poor fit]"
7,COc1ccc(NC(=O)Cn2c(C)cc3nc4n(c(=O)c32)CCCC4)cc1Cl,inactive
8,COC(=O)C1=C(C)N(c2ccccc2)/C(=C/c2cccs2)C1=O,inactive
9,CC(=O)c1cccc(NC(=S)NCCCCc2ccccc2)c1,"inconclusive: 44.7 µM [inhibitor, partial curve, poor fit]"
10,CC(c1ccccc1)N(C)C(=O)COC(=O)c1cc2ccccc2[nH]1 (stereo unspecified),"inconclusive: 56.2 µM [inhibitor, partial curve, poor fit]"
11,O=C1CC(c2ccccc2)Oc2cc(O)cc(O)c21 (stereo unspecified),"inconclusive: 50.1 µM [inhibitor, partial curve, poor fit]"
12,COc1ccc2c(c1)Cc1sc(NC(=O)c3cccnc3)nc1-2,inactive
13,CC(Nc1ccc2oc(C(C)(C)C)nc2c1)C(=O)N1CCCC1 (stereo unspecified),"inconclusive: 79.4 µM [inhibitor, single point]"
14,C=CCNC(=O)c1ccncc1,"inconclusive: 5.01 µM [inhibitor, full curve, poor fit]"
15,COc1cc(CNc2ccc3[nH]c(=O)[nH]c3c2)ccc1OCc1ccc(F)cc1Cl,"inactive and inconclusive: 50.1 µM [inhibitor, partial curve]"
16,Cc1ccc(N/N=C/c2ccc(Br)cc2)cc1Cl,"inconclusive: 2 µM [inhibitor, full curve, poor fit]"
17,COc1cc(CNc2ncc(-c3ccc(Cl)cc3)n2C)cc(OC)c1OC,"inconclusive: 1 µM [inhibitor, full curve]"
18,CC1CC(C)CN(C(C(=O)NC2CCCCC2)c2ccnc3ccccc23)C1 (stereo unspecified),"inconclusive: 15.8 µM [inhibitor, full curve]"
19,CCn1ccc(C(=O)N2CC[C@@H]3COCCN(Cc4ccncc4)[C@@H]3C2)n1,inactive
20,Cc1cccc(NC(=O)N2CCC(N3CCN(Cc4ccccn4)C(=O)C3=O)CC2)c1C,inactive
21,Cc1nn(Cc2ccccc2)c(C)c1CNS(=O)(=O)c1cccc(C#N)c1,"inconclusive: 17.8 µM [inhibitor, partial curve, poor fit]"

row,SMILES,Potency
1,Cc1ccc(NC(=S)NCCO)cc1,"inconclusive: 35.5 µM [inhibitor, partial curve, poor fit]"
2,O=C(O)CSC1=NC(=Nc2cccc(Cl)c2)C2(CCCCC2)N1c1ccccc1,"inconclusive: 7.94 µM [inhibitor, partial curve, poor fit]"
3,O=C(Nc1nc2n(n1)C(c1ccccc1)C=C(c1ccccc1)N2)c1ccco1 (stereo unspecified),"inconclusive: 28.2 µM [inhibitor, single point]"
4,Cc1cc(NS(=O)(=O)c2ccc(N)cc2)no1,"inconclusive: 17.2 µM [inhibitor, single point]"
5,CSc1nsc(N/N=C/c2ccc3c(c2)OCO3)c1C#N,"inconclusive: 89.1 µM [inhibitor, partial curve, poor fit]"
6,O=C(Nc1ccc(Br)cc1)c1csc(-c2ccncc2)n1,inactive
7,COc1ccc(NC(=O)c2c(NC(=O)C(F)(F)F)sc3c2CCCCC3)cc1,inactive
8,CCCCC1CCC(C(=O)N2CC(=O)Nc3ccc(C)cc3C2c2ccc(F)cc2)CC1 (stereo unspecified),"inconclusive: 112 µM [inhibitor, partial curve, poor fit]"
9,CCN(CC)c1ccc(C2C3CCCCC3(O)CCN2CC(=O)N2CCCCC2)cc1 (stereo unspecified),"inconclusive: 100 µM [inhibitor, partial curve, poor fit]"
10,COC(=O)c1ccsc1NC(=O)CCS(=O)(=O)c1ccc(Cl)cc1,"inconclusive: 70.8 µM [inhibitor, partial curve, poor fit]"
11,O=C(NC(=S)Nc1cccc(O)c1)c1ccco1,"inconclusive: 44.7 µM [inhibitor, partial curve, poor fit]"
12,CCN(CC)S(=O)(=O)c1ccc(NN)nc1,"inconclusive: 35.5 µM [inhibitor, partial curve, poor fit]"
13,COc1ccc(-n2cc(-c3ccccc3)c3c(N4CCN(CCO)CC4)ncnc32)cc1,"inconclusive: 89.1 µM [inhibitor, partial curve, poor fit]"
14,COc1ccccc1NNC(=O)C(O)(c1ccccc1)c1ccccc1,"inconclusive: 50.1 µM [inhibitor, partial curve, poor fit]"
15,Cc1nc(N2N=C(c3ccc(Cl)cc3)CC2c2ccco2)sc1C(=O)N(C)C (stereo unspecified),"inconclusive: 56.2 µM [inhibitor, partial curve, poor fit]"
16,COc1cccc(CNC(=O)c2cc(-c3ccc(Cl)s3)nc3ccccc23)c1,"inconclusive: 63.1 µM [inhibitor, partial curve, poor fit]"
17,O=C(COc1ccc(/C=N/NC(=O)c2cccnc2)cc1)Nc1ccccc1,inactive
18,CC(=O)/C(=N\Nc1ccc(Cl)cc1Cl)Sc1nnc(-c2ccccc2)n1-c1ccccc1,"inconclusive: 1.78 µM [inhibitor, full curve, poor fit]"
19,COc1ccccc1CC1(C)C(=O)Nc2ccc(OC(F)(F)F)cc21 (stereo unspecified),"inconclusive: 44.7 µM [inhibitor, partial curve, poor fit]"
20,COc1ccc(C(=O)NCCc2ccccc2)cc1OC,"inconclusive: 0.355 µM [inhibitor, full curve]"
